No constants are given. Whether binding was seen depends on the method and setting. In cells and extracts the contact can be indirect. Some results given as binding are weak or reduced against the parent protein; the word gives no strength.
Columns and labels:
STIM1 (human) = STIM1 (human) (UniProt Q13586); assay: co-IP; CHO cells transiently transfected with STIM1 and either the P100 or the CTF construct; lysate immunoprecipitated with anti-STIM1 antibody, blot probed with anti-PC1 CT antibody
[1] = target: Polycystin-1 cleavage product P100 (recombinant P100 construct starting at V3645) (human) (UniProt P98161); assay: co-IP; CHO cells transiently transfected with STIM1 and P100, or STIM1 alone; Flag-tagged P100 immunoprecipitated with flag conjugated beads, blot probed with anti-STIM1 antibody

By UniProt entry, the sequences of proteins in these tests, tags left out. Where a name states a change or a piece, a line headed by the entry shows the natural chain unless it says otherwise. Residues count along the entry.
UniProt Q13586, residues 23-685: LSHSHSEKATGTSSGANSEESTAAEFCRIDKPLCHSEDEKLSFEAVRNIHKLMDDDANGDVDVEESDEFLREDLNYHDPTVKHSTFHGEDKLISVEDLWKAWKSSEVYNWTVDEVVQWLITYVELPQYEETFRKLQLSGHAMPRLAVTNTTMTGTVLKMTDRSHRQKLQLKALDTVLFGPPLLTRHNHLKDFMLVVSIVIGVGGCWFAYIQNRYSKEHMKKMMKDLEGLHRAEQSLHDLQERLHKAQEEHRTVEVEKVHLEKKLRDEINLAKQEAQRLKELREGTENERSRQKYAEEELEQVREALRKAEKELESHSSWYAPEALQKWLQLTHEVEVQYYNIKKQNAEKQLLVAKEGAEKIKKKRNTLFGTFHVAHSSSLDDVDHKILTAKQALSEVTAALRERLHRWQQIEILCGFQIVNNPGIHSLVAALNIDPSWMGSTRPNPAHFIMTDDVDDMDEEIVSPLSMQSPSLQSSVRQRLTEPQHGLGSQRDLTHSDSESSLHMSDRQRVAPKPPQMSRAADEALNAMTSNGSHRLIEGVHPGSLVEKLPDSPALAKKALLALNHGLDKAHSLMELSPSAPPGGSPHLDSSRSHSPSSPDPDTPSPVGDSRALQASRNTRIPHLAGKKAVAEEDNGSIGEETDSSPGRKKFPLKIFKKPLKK
UniProt P98161, residues 3646-4303: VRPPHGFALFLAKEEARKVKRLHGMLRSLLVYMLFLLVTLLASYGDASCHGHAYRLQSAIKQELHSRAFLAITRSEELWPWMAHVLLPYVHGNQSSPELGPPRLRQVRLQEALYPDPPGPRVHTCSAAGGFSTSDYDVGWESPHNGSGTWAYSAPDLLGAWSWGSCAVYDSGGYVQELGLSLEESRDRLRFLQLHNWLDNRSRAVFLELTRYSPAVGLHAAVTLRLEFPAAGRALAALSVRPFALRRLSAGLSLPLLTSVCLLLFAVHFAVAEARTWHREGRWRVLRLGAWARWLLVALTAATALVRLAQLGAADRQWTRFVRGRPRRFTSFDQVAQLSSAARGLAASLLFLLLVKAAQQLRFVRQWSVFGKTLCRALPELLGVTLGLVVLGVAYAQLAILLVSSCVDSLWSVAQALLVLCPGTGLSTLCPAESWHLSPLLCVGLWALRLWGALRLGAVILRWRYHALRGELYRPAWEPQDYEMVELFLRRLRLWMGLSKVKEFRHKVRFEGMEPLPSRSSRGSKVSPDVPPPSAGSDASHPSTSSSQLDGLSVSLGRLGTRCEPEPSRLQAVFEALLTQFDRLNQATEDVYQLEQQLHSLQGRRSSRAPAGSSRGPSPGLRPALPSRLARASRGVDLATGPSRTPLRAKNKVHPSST

| binding (STIM1 (human)) | binding [1] | Substance |
| --- | --- | --- |
| binds | – | Polycystin-1 cleavage product P100 (recombinant P100 construct starting at V3645) (from UniProt P98161-3 3645-4302) (domain or fragment) |
| – | binds | STIM1 (from UniProt Q13586 23-685) |

Reference: PMC2925899
